Results taken from the supplement of paper PMC10338343.
± gives the standard deviation. Only a part is listed here, and it is no random draw. Many entries were measured with a wide error.

test system: MILI (PIWIL2) piRISC loaded with L1MC piRNA (26 nt); test: pre-steady-state target cleavage rate (min^-1); MIWI and MILI are mouse PIWI proteins and EfPiwi is from a freshwater sponge; tags in brackets are library labels; higher = faster piRNA-guided slicing of the target; details: guide: L1MC piRNA 5'p-UAACUAAAUACUAUGCAAGCUGUAGG; auxiliary factor: 500 nM mouse GTSF1
Protocol: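 Cleave-'n-Seq: a library of target RNAs (target site embedded in constant flanks, ACAGCATTCCGCGTTAGTGATATCCG... 5' flank; DNA-blocked outside the site) at 0.1 nM was incubated with 1 nM active mouse MILI or MIWI piRISC (synthetic 5'-monophosphorylated piRNA guide) with or without 500 nM mouse GTSF1 at 33 °C for 1 min to 16 h. Uncleaved targets were sequenced and normalised to non-target controls, and the pooled three trials were fitted to a burst-and-steady-state model to give the pre-steady-state cleavage rate (min^-1; k3 is constrained to at most 1e-4). Sequence is the target site only; target names encode pairing extent (gX:gY) and contiguous / 1-mismatch / 2-mismatch / bulge geometry. Fits with R² ≤ 0 are excluded.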

| Sequence | pre-steady-state target cleavage rate |
| --- | --- |
| UCCUGGAUGUCGAAGCAUAGCAUUUAGUUA | 0.00187 ± 0.006 |
| UCCUGCUACUCCUUGCAUAGUAUUUAGUAA | 0.188 ± 0.023 |
| UCCUGGAUGUCGAACGUUAGUUUUUAGUAA | 0.000175 ± 0.03 |
| UCCUGGUACAGCUUGCUUAGUUUUUAGUUA | 0.0347 ± 0.011 |
| UCCUGGAACAGCAUGCAUAGUUUUUAGUUA | 0.0418 ± 0.011 |
| UCCUGGAUGUCCUUGCAAAGUAUUUAGAUA | 0.0324 ± 0.012 |
| UCCUGGAUGUCGUUACAUAGUAUUUAGUUA | 0.105 ± 0.011 |
| UCCUGGAUGAGCUUGCAGUAGUAUUUAGUUA | 0.00142 ± 0.0066 |
| UCCUGGAACAGCUUGGAUAGUAUAUAGUUA | 0.215 ± 0.027 |
| UCCUGGAUGUCGAAGCAUAGUAUUAUCUUA | 0.00061 ± 0.013 |
| UCCUGGAUGUGCUUGCAUAGUUUAUAGUUA | 0.00502 ± 0.0041 |
| UCCUGGAUGUCGAUAGCAUAGUAUUUAGUUA | 0.0459 ± 0.014 |
| UCCUGGAUGUCGAACGUAUCUAUUCUAGUUA | 0.000188 ± 0.038 |
| UCCUGGUACUGCUUGGAUAGUAUUUAGUUA | 0.179 ± 0.029 |

same assay, conditions: guide: L1MC piRNA 5'p-UAACUAAAUACUAUGCAAGCUGUAGG; auxiliary factor: none (no GTSF1)

| Sequence | pre-steady-state target cleavage rate |
| --- | --- |
| UCCUGGAUGUCGAAGCAUAGCAUUUAGUUA | 0.000803 ± 0.006 |
| UCCUCCUACAGCUUGCAUAGUAUAUAGUAA | 0.0021 ± 0.003 |
| UCCUGCUACUCCUUGCAUAGUAUUUAGUAA | 0.00412 ± 0.002 |
| UCCUGGAUGUCGAACCAUAGUAUAAUGUUA | 0.000288 ± 0.015 |
| UCCUCCUACAGCUUGCUUAGAAUUUAGUUA | 0.00155 ± 0.0032 |
| UCCUGCUACAGCAACCAUAGUAUUUAGAAA | 0.000288 ± 0.014 |
| UCCUGGUACAGCUUGCAUAGUAUAAAGUAA | 0.0017 ± 0.0048 |
| UCCUGGAUGUCGAACGUUAGUUUUUAGUAA | 0.000288 ± 0.013 |
| UCCUGGAUCAGCUUCGUUAGUAUUUAGUAA | 0.000545 ± 0.008 |
| UCCUGGUACAGCUUGCUUAGUUUUUAGUUA | 0.00709 ± 0.0023 |
| UCCUGGAACAGCAUGCAUAGUUUUUAGUUA | 0.00553 ± 0.0023 |
| UCCUGGAUGUCGAACCAUUGUAUUUAGUAA | 0.000432 ± 0.0081 |
| UCCUGGAUGUCCUUGCAAAGUAUUUAGAUA | 0.00187 ± 0.0031 |
| UCCUGGAACAGCAUGCAUAGUAUUUUCAAA | 0.00117 ± 0.0044 |
| UCCUGGAUGUCGUUGGAAAGUAUUUAGUUA | 0.000187 ± 0.028 |
| UCCUGGAUGUCGUUACAUAGUAUUUAGUUA | 0.00442 ± 0.0022 |
| UCCUGGAUGAGCUUGCAGUAGUAUUUAGUUA | 0.000837 ± 0.008 |
| UCCUGGAUGUCGAACGUUAGUAUUUAUGUUA | 0.000163 ± 0.032 |
| UCCUGGAACAGCUUGGAUAGUAUAUAGUUA | 0.00403 ± 0.0027 |
| UCCUGGAUGUCGAAGCAUAGUAUUAUCUUA | < 0.0001 |
| UCCUCCUACAGCUUGCAUAGUAUUUAGGUA | 0.00116 ± 0.0068 |
| UCCUGGAUGUCGAACGUUAGUAUUUAGAAA | 0.000166 ± 0.018 |
| UCCUGGAUGUGCUUGCAUAGUUUAUAGUUA | 0.00269 ± 0.0032 |
| UCCUGGAUGUCGAUAGCAUAGUAUUUAGUUA | 0.00341 ± 0.0026 |
| UCCUGGAACAGCUUGGAUAGUAUUUAGAUA | 0.0018 ± 0.0035 |
| UCCUGGUACUGCUUGGAUAGUAUUUAGUUA | 0.00767 ± 0.0042 |
